From PMC7737771, “In‐depth interrogation of protein thermal unfolding data with MoltenProt” (Protein Science : A Publication of the Protein Society, 2020)
Results are given in words; binding and its absence hold for the method and conditions named. Some entries that bind do so weakly or less than the wild type. One block for each binder: values may come before it.

What was measured:
[1] = biological target: RuvB from Streptococcus thermophilus (Streptococcus thermophilus) (UniProt Q03IE9); assay: negative staining electron microscopy; RuvB in 20 mM Tris pH 8.0, 20 mM NaCl, 10 mM MgCl2, 2% glycerol, 0.5 mM DTT with 1 mM ATPgS; 2% uranyl acetate; both purified
KtrB = biological target: T1, KtrB (UniProt O32081); assay: reconstitution and co-purification (affinity chromatography, then SEC); KtrA‐ATP or KtrA‐AMP added to KtrB at the affinity chromatography step of KtrB purification (1 mM ATP or 10 μM AMP); complex dialyzed and purified by SEC in 20 mM Tris–HCl pH 8.0, 120 mM NaCl, 30 mM KCl, 5 mM DTT, 1.5 mM CYMAL‐6; only the binder purified
T1 sequence: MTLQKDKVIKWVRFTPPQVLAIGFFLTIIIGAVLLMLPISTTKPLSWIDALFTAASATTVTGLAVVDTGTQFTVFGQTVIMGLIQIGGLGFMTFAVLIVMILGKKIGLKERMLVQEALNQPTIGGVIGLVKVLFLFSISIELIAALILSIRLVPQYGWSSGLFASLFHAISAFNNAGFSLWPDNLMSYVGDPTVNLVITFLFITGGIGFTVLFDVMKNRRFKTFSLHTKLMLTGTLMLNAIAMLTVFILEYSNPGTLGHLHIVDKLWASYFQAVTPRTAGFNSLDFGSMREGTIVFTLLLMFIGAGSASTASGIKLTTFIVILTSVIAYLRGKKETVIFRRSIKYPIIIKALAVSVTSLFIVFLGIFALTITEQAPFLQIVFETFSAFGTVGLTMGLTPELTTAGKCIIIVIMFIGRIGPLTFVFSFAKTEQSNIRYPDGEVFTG

binding [1]: binds
B1: RuvB from Streptococcus thermophilus (enzyme, UniProt Q03IE9 1-333)
chain: MARILDNDLLGDEEYVERTLRPQYFKEYIGQDKVKDQLKIFIEAAKLRDEALDHTLLFGPPGLGKTTMAFVIANEMGVNLKQTSGPAIEKAGDLVAILNDLEPGDILFIDEIHRMPMAVEEVLYSAMEDYYIDIMIGAGETSRSVHLDLPPFTLVGATTRAGMLSNPLRARFGINGHMEYYELPDLTEIVERTSEIFEMTITPEAALELARRSRGTPRIANRLLKRVRDYAQIMGDGVIDDKIADQALTMLDVDHEGLDYVDQKILRTMIEMYGGGPVGLGTLSVNIAEERETVEDMYEPYLIQKGFIMRTRTGRVATAKAYEHMGYDYTRDN

binding (KtrB): binds
B2: KtrA (protein, UniProt O32080 1-222)
chain: MGRIKNKQFAVIGLGRFGGSICKELHRMGHEVLAVDINEEKVNAYASYATHAVIANATEENELLSLGIRNFEYVIVAIGANIQASTLTTLLLKELDIPNIWVKAQNYYHHKVLEKIGADRIIHPEKDMGVKIAQSLSDENVLNYIDLSDEYSIVELLATRKLDSKSIIDLNVRAKYGCTILAIKHHGDICLSPAPEDIIREQDCLVIMGHKKDIKRFENEGM
